Data published in PMC6531468.
These are yes or no findings as the source states them, for the method shown.

Chains of the proteins cited; added tags and fusions are not shown. Lines headed by an entry give the natural chain unless they say otherwise; changes in a name come on top. A line that says so, or that is headed by a name, gives the form on record, which may keep a tag or linker.
IMP3 KH1–Δ2 tandem domain (Lys192–Ile355, GKEG of KH2 replaced by GDDG) (O00425, form named): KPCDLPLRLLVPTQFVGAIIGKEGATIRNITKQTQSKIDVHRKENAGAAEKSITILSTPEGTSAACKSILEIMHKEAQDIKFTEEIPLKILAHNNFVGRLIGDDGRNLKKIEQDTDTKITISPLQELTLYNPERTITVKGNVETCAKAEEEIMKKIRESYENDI

Biological target: IMP3 KH1–Δ2 tandem domain (Lys192–Ile355, GKEG of KH2 replaced by GDDG) (human) (UniProt O00425)
Assay: SAXS; in solution, in-house or ESRF BM29; sample concentrations 1–7 mg/ml (RRM1–2 at 1 mg/ml; KH1–Δ2 at 4 mg/ml, compared with a Crysol curve from the crystal structure); both purified

For “IMP3 KH1–Δ2 tandem domain (Lys192–Ile355, GKEG of KH2 replaced by GDDG) (from UniProt O00425 192-355) (domain or fragment)”, the binding was “no binding (tested: 4 mg/ml)”.
